# Screening data

Data taken from PubChem BioAssay AID504749, deposited by NCATS (2011).

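A panel of P. falciparum strains inside erythrocytes is exposed to compounds for three days, then a DNA-binding dye reports the amount of parasite DNA. Each compound was titrated across a series from about 0.000037 to 29 µM. The number is the fitted AC50, the concentration giving a half-maximal change in signal; a lower value means higher potency, whether the curve shows a decrease or an increase. Calls follow the curve class and fit quality: every row here is inconclusive, covering signal-raising curves and weak, poorly fitted, partial or highest-dose-only inhibition curves.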

Values are in nM. Every entry below has the call inconclusive. Only part of the assay is shown, chiefly results filed as inconclusive. A potency from a partial, single-point or poor curve is only a rough figure.

CCCCCCCCCCCCCCCCOCCOCCOCCOCCOCCOCCOCCOCCOCCOCCOCCOCCOCCOCCOCCOCCOCCOCCOCCOCCO [C2A] gave potency 10000 nM (inhibitor, single point).
CCCCCCCCCCCCCCCCOCCOCCOCCOCCOCCOCCOCCOCCOCCOCCOCCOCCOCCOCCOCCOCCOCCOCCOCCOCCO [TAB113] gave potency 17782 nM (inhibitor, single point).
CCCCCCCCCCCCCCCCOCCOCCOCCOCCOCCOCCOCCOCCOCCOCCOCCOCCOCCOCCOCCOCCOCCOCCOCCOCCO [CP215] gave potency 13459 nM (inhibitor, single point).
CCCCCCCCCCCCCCCCOCCOCCOCCOCCOCCOCCOCCOCCOCCOCCOCCOCCOCCOCCOCCOCCOCCOCCOCCOCCO [GB4] gave potency 15101 nM (inhibitor, single point).
CCCCCCCCCCCCCCCCOCCOCCOCCOCCOCCOCCOCCOCCOCCOCCOCCOCCOCCOCCOCCOCCOCCOCCOCCOCCO [CP265] gave potency 17782 nM (inhibitor, single point).
CCCCCCCCCCCCCCCCOCCOCCOCCOCCOCCOCCOCCOCCOCCOCCOCCOCCOCCOCCOCCOCCOCCOCCOCCOCCO [SC27B] gave potency 12589 nM (inhibitor, single point).
CCCCCCCCCCCCCCCCOCCOCCOCCOCCOCCOCCOCCOCCOCCOCCOCCOCCOCCOCCOCCOCCOCCOCCOCCOCCO [DFO2036] gave potency 11220 nM (inhibitor, single point).
CCCCCCCCCCCCCCCCOCCOCCOCCOCCOCCOCCOCCOCCOCCOCCOCCOCCOCCOCCOCCOCCOCCOCCOCCOCCO [CP250] gave potency 14125 nM (inhibitor, single point).
CCCCCCCCCCCCCCCCOCCOCCOCCOCCOCCOCCOCCOCCOCCOCCOCCOCCOCCOCCOCCOCCOCCOCCOCCOCCO [3D7] gave potency 5623 nM (inhibitor, partial curve).
CCCCCCCCCCCCCCCCOCCOCCOCCOCCOCCOCCOCCOCCOCCOCCOCCOCCOCCOCCOCCOCCOCCOCCOCCOCCO [FAB9] gave potency 17782 nM (inhibitor, single point).
CCCCCCCCCCCCCCCCOCCOCCOCCOCCOCCOCCOCCOCCOCCOCCOCCOCCOCCOCCOCCOCCOCCOCCOCCOCCO [CP217] gave potency 11220 nM (inhibitor, single point).
CCCCCCCCCCCCCCCCOCCOCCOCCOCCOCCOCCOCCOCCOCCOCCOCCOCCOCCOCCOCCOCCOCCOCCOCCOCCO [AA1029] gave potency 12589 nM (inhibitor, single point).
CCCCCCCCCCCCCCCCOCCOCCOCCOCCOCCOCCOCCOCCOCCOCCOCCOCCOCCOCCOCCOCCOCCOCCOCCOCCO [CP194] gave potency 19011 nM (inhibitor, single point).
CCCCCCCCCCCCCCCCOCCOCCOCCOCCOCCOCCOCCOCCOCCOCCOCCOCCOCCOCCOCCOCCOCCOCCOCCOCCO [CP211] gave potency 15101 nM (inhibitor, single point).
CCCCCCCCCCCCCCCCOCCOCCOCCOCCOCCOCCOCCOCCOCCOCCOCCOCCOCCOCCOCCOCCOCCOCCOCCOCCO [CP185] gave potency 11220 nM (inhibitor, single point).
CCCCCCCCCCCCCCCCOCCOCCOCCOCCOCCOCCOCCOCCOCCOCCOCCOCCOCCOCCOCCOCCOCCOCCOCCOCCO [CP191] gave potency 10000 nM (inhibitor, single point).
CCCCCCCCCCCCCCCCOCCOCCOCCOCCOCCOCCOCCOCCOCCOCCOCCOCCOCCOCCOCCOCCOCCOCCOCCOCCO [DIV30] gave potency 19011 nM (inhibitor, single point).
CCCCCCCCCCCCCCCCOCCOCCOCCOCCOCCOCCOCCOCCOCCOCCOCCOCCOCCOCCOCCOCCOCCOCCOCCOCCO [CP329] gave potency 19011 nM (inhibitor, single point).
CCCCCCCCCCCCCCCCOCCOCCOCCOCCOCCOCCOCCOCCOCCOCCOCCOCCOCCOCCOCCOCCOCCOCCOCCOCCO [CP203] gave potency 16944 nM (inhibitor, single point).
CCCCCCCCCCCCCCCCOCCOCCOCCOCCOCCOCCOCCOCCOCCOCCOCCOCCOCCOCCOCCOCCOCCOCCOCCOCCO [CP252] gave potency 12589 nM (inhibitor, single point).
CCCCCCCCCCCCCCCCOCCOCCOCCOCCOCCOCCOCCOCCOCCOCCOCCOCCOCCOCCOCCOCCOCCOCCOCCOCCO [PC26] gave potency 16944 nM (inhibitor, single point).
CCCCCCCCCCCCCCCCOCCOCCOCCOCCOCCOCCOCCOCCOCCOCCOCCOCCOCCOCCOCCOCCOCCOCCOCCOCCO [CP192] gave potency 19011 nM (inhibitor, single point).
CCCCCCCCCCCCCCCCOCCOCCOCCOCCOCCOCCOCCOCCOCCOCCOCCOCCOCCOCCOCCOCCOCCOCCOCCOCCO [CP325] gave potency 16944 nM (inhibitor, single point).
CCCCCCCCCCCCCCCCOCCOCCOCCOCCOCCOCCOCCOCCOCCOCCOCCOCCOCCOCCOCCOCCOCCOCCOCCOCCO [ATS189] gave potency 11220 nM (inhibitor, single point).
[O]=[Cr](=[O])([OH])[O][Cr](=[O])(=[O])[OH] [CP237] gave potency 17782 nM (inhibitor, single point).
[O]=[Cr](=[O])([OH])[O][Cr](=[O])(=[O])[OH] [ICS] gave potency 17782 nM (inhibitor, single point).
[O]=[Cr](=[O])([OH])[O][Cr](=[O])(=[O])[OH] [CP291] gave potency 21331 nM (inhibitor, partial curve, poor fit).

Once more, the final 3:

- [O]=[Cr](=[O])([OH])[O][Cr](=[O])(=[O])[OH] [CP237] : potency 17782 nM (inhibitor, single point)
- [O]=[Cr](=[O])([OH])[O][Cr](=[O])(=[O])[OH] [ICS] : potency 17782 nM (inhibitor, single point)
- [O]=[Cr](=[O])([OH])[O][Cr](=[O])(=[O])[OH] [CP291] : potency 21331 nM (inhibitor, partial curve, poor fit)